This is an account of results in PMC10628517, “CXCL17 binds efficaciously to glycosaminoglycans with the potential to modulate chemokine signaling” (Frontiers in Immunology, 2023).

No constants are given. Whether binding was seen depends on the method and setting. Some results given as binding are weak or reduced against the parent protein; the word gives no strength. Tags and fused reporters may be left off the sequences shown.

The assay deals with T1, human CXCL17 full-length ORF with a C-terminal His tag, expressed in CHO-761H cells (human), Q6UXB2.
T1 chain: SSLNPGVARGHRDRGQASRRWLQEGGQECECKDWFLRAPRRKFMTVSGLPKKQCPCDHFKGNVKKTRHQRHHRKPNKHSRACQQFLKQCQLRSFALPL
In words: reducing SDS-PAGE and Western blot; CHO-761H cells transfected with C-terminally His-tagged CXCL17 ORF; lysates or Ni-NTA-concentrated supernatants run under reducing conditions and probed with anti-CXCL17 antiserum; bands of approximately 15 and 30 kDa. As to conditions: remark: other sources report otherwise. A general note: A western blot detects proteins with antibodies after separation by electrophoresis.

B1: human CXCL17 full-length ORF with a C-terminal His tag, expressed in CHO-761H cells, Q6UXB2 22-119 (protein)
chain: SSLNPGVARGHRDRGQASRRWLQEGGQECECKDWFLRAPRRKFMTVSGLPKKQCPCDHFKGNVKKTRHQRHHRKPNKHSRACQQFLKQCQLRSFALPL
On to B1, for which the binding entry is “binds”.
